Assay results taken from US20240352143A1.
Residue numbers refer to the chain shown, from its start. No constants are given. Whether binding was seen depends on the method and setting. Some results given as binding are weak or reduced against the parent protein; the word gives no strength.

By UniProt entry, the sequences of proteins in these tests, tags left out. Where a name states a change or a piece, a line headed by the entry shows the natural chain unless it says otherwise.
UniProt P21589: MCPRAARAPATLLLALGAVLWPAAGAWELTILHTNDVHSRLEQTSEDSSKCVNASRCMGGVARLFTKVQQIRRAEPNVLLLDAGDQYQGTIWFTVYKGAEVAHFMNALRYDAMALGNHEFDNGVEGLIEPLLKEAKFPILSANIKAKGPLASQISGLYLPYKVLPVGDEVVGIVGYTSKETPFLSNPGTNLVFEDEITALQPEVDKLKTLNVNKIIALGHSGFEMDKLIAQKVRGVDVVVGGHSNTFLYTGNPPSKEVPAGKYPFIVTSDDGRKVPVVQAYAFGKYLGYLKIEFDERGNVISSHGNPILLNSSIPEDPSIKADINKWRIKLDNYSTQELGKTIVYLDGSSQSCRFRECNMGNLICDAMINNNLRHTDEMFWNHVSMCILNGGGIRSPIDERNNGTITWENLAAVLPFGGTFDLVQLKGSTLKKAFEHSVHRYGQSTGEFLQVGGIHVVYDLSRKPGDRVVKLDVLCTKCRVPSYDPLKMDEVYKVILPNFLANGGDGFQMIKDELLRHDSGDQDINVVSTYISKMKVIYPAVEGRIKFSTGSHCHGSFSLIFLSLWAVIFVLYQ

B1: CL25_hu_10-6 (antibody, V domains shown)
VH: EVQLVQSGAEVKKPGESLKISCKGSGYTFTSYGLSWVRQMPGKGLEWMGEIYPGSGNTYYNEKFKGQVTISADKSISTAYLQWSSLKASDTAMYYCARYDYLGSSYGFDYWGAGTTVTVSS
VL: AIRMTQSPSSFSASTGDRVTITCKASQDVSTAVAWYQQKPGKAPKLLIYSASYRYSGVPSRFSGSGSGTDFTLTISCLQSEDFATYYCQQHYNTPYTFGGGTKLEIK
B2: CL25_hu_8-4 (antibody, V domains shown)
VH: QVQLVQSGAEVKKPGASVKVSCKASGYTFTSYGLSWVRQATGQGLEWMGEIYPGSGNTYYNEKFKGRVTMTRNTSISTAYMELSSLRSEDTAVYYCARYDYLGSSYGFDYWGAGTTVTVSS
VL: B1 VL with A1D, R3Q, F11L, T15V, I48L, F71Y, C77S, S80P
B3: CL25_hu_10-4 (antibody, V domains shown)
VH: B1 VH
VL: B1 VL with A1D, R3Q, F11L, T15V, I48L, F71Y, C77S, S80P
B4: CL25_hu_11-4 (antibody, V domains shown)
VH: B2 VH with R72A
VL: B1 VL with A1D, R3Q, F11L, T15V, I48L, F71Y, C77S, S80P
B5: CL25_hu_9-6 (antibody, V domains shown)
VH: B2 VH with A16S, T41P, M70I, R72A, N73D, T74E, I76T
VL: B1 VL
B6: CL25_hu_9-4 (antibody, V domains shown)
VH: B2 VH with A16S, T41P, M70I, R72A, N73D, T74E, I76T
VL: B1 VL with A1D, R3Q, F11L, T15V, I48L, F71Y, C77S, S80P
B7: CL25_hu_8-6 (antibody, V domains shown)
VH: B2 VH
VL: B1 VL
B8: CL25_hu_11-6 (antibody, V domains shown)
VH: B2 VH with R72A
VL: B1 VL
B9: CL25_hu_11-5 (antibody, V domains shown)
VH: B2 VH with R72A
VL: DIVMTQSPDSLAVSLGERATINCKASQDVSTAVAWYQQKPGQPPKLLIYSASYRYSGVPDRFSGSGSGTDFTLTISSLQAEDVAVYYCQQHYNTPYTFGGGTKLEIK
B10: CL25_hu_9-5 (antibody, V domains shown)
VH: B2 VH with A16S, T41P, M70I, R72A, N73D, T74E, I76T
VL: B9 VL
B11: CL25_hu_8-5 (antibody, V domains shown)
VH: B2 VH
VL: B9 VL

Target: cell surface CD73 on MDA-MB-231 and A375 cells (human) (UniProt P21589)
Assay: flow cytometry on MDA-MB-231 cells, antibody 30 min on ice, PE-conjugated secondary antibody, GMFI

| binding | Binder |
| --- | --- |
| binds | B1 |
| binds | B2 |
| binds | B3 |
| binds | B4 |
| binds | B5 |
| binds | B6 |
| binds | B7 |
| binds | B8 |
| binds | B9 |
| binds | B10 |
| binds | B11 |
